Results are given in words; binding and its absence hold for the method and conditions named. In cells and extracts the contact can be indirect. Some results given as binding are weak or reduced against the parent protein; the word gives no strength.
What was measured:
[1] = target: JNK2, endogenous (human (endogenous in MCF7)) (UniProt P45984); test: co-IP; endogenous proteins; MCF7 cells starved 24 h, exposed to 25 ng/mL IL-33 for the indicated time; immunoprecipitation with JNK1 or JNK2 antibodies, immunoblot as indicated
[2] = target: JNK1, endogenous (human (endogenous in MCF7)) (UniProt P45983); test: as above
V5-JNK1 = V5-JNK1 (UniProt P45983); test: co-IP; HEK293 cells co-expressing V5-JNK1 or V5-JNK2 with Myc-COT; immunoprecipitation with anti-V5, immunoblot with anti-Myc or anti-V5; lysis in 150 mM NaCl, 50 mM Tris-HCl pH 7.4, 0.25% sodium deoxycholate, 1 mM EDTA, 1% NP40; overnight at 4 °C
V5-JNK2 = V5-JNK2 (UniProt P45984); test: as above

Protein sequences, listed by entry. Tags and fused reporters are not part of them. Lines headed by an entry give the natural chain unless they say otherwise; changes in a name come on top. Chains listed by the source or under a name are the forms on record and can include a tag or linker.
UniProt P45983: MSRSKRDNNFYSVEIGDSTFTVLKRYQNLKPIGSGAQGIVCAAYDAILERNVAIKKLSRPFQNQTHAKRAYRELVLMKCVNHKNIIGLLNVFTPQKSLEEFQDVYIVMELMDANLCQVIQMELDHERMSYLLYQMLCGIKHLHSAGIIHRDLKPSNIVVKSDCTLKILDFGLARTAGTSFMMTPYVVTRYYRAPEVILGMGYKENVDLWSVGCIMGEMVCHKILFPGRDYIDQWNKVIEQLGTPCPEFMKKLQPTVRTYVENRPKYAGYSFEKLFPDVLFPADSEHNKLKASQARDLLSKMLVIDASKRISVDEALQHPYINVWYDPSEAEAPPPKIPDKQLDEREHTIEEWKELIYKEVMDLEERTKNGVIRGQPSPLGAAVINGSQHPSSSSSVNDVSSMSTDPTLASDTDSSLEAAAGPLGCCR
JNK1, endogenous (human (endogenous in MCF7)) (P45983, form named): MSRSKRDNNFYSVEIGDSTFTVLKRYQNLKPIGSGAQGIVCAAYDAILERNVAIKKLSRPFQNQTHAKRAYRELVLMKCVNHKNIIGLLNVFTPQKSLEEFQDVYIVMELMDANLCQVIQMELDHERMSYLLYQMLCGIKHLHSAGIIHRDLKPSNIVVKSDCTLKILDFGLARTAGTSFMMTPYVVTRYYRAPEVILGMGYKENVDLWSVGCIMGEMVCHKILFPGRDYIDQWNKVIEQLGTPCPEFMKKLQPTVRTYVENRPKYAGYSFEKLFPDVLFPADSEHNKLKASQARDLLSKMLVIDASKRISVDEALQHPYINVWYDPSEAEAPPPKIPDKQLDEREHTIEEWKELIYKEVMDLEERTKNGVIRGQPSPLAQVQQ
UniProt P41279: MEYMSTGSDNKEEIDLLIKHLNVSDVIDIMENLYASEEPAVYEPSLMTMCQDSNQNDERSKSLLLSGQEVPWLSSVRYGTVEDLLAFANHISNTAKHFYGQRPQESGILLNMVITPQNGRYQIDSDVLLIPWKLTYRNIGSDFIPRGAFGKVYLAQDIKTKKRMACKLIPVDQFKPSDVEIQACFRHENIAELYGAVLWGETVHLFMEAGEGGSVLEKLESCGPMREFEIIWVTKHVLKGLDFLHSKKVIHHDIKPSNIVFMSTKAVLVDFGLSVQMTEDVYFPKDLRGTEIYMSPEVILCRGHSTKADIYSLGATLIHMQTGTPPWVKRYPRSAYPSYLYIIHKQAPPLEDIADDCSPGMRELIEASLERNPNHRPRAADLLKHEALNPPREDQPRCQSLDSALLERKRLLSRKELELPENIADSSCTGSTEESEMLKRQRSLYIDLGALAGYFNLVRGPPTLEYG

Row | binding [1] | binding [2] | binding (V5-JNK1) | binding (V5-JNK2) | Substance
1 | binds | binds |  |  | COT (Cancer Osaka thyroid), endogenous (from UniProt P41279-1 1-467) (enzyme)
2 |  |  | binds | binds | Myc-COT (Cancer Osaka thyroid) (from UniProt P41279 1-467) (enzyme)
